No constants are given. Whether binding was seen depends on the method and setting. For part of these data: Binding calls can cover weak binding; strength is not graded here. Where a sequence is shown, tags or fusion partners need not be part of it. For part of these data: Binding seen in cells or lysates may run through a third protein. Each block holds one binder with its values, some of them ahead of it.
Assays:
[1] = molecular target: MBP-TCS1 (TRICHOME CELL SHAPE 1 fused to maltose binding protein) (Arabidopsis thaliana) (UniProt Q0WSY2); assay: pull-down; bacterial lysates with ~15 ug MBP-TCS1 or MBP mixed with ~20 ug AN-His fusion proteins; amylose resin, 4 C, 1 h; washed five times with TGH buffer; anti-His immunoblot; only the binder purified
[2] = molecular target: TCS1-BD (TCS1 fused to the GAL4 DNA binding domain) (Arabidopsis thaliana) (UniProt Q0WSY2); assay: two-hybrid; prey (pEXP-AD502) and bait (pDBleu) plasmids co-transformed into yeast strain PT69-4A; TCS1 against full length KCBP
[3] = molecular target: TCS1-GFP (pTCS1:TCS1-GFP) (Arabidopsis thaliana) (UniProt Q0WSY2); assay: co-IP; total proteins from pTCS1:TCS1-GFP;35S:Myc-KCBP and 35S:GFP;35S:Myc-KCBP plants (50 mM Tris/HCl pH 7.5, 2% Triton X-100, 150 mM NaCl, MG132) on GFP-Trap-A, 1 h, 4 C; immunoblot with anti-GFP and anti-Myc

The chains behind the UniProt entries cited, without tags or fusion partners. Where a name states a change or a piece, a line headed by the entry shows the natural chain unless it says otherwise.
UniProt Q0WSY2: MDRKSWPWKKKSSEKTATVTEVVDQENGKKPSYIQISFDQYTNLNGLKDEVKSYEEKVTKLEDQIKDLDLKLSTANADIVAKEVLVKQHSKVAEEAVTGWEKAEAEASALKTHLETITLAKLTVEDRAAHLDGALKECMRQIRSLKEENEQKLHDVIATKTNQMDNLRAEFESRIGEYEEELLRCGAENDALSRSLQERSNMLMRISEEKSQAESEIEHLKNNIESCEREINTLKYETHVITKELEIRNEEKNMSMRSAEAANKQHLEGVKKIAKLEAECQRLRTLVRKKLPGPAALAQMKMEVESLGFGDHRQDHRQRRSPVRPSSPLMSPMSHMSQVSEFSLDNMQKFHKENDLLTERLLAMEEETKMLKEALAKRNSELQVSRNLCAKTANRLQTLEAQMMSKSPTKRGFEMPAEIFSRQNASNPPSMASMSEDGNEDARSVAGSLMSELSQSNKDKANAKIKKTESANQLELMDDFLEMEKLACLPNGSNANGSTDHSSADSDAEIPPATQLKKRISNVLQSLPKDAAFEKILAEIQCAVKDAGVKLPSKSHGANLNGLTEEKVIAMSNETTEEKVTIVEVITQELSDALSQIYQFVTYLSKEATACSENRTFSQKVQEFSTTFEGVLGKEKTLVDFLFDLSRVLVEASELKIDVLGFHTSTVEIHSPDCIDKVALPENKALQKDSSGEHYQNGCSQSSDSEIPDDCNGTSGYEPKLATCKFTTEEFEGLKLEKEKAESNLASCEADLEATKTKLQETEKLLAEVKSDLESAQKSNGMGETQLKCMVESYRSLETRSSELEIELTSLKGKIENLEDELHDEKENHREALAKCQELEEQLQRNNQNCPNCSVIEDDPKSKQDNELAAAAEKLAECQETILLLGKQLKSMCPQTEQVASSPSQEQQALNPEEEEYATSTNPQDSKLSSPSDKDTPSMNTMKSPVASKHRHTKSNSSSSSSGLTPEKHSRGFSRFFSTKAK

binding [1]: no binding
B1: AN-His (ANGUSTIFOLIA) (protein, UniProt O23702 1-636)
chain: MSKIRSSATMPHRDQPSPASPHVVTLNCIEDCALEQDSLAGVAGVEYVPLSRIADGKIESATAVLLHSLAYLPRAAQRRLRPHQLILCLGSADRAVDSTLAADLGLRLVHVDTSRAEEIADTVMALILGLLRRTHLLSRHALSASGWLGSLQPLCRGMRRCRGMVLGIVGRSVSARYLASRSLAFKMSVLYFDVPEGDEERIRPSRFPRAARRMDTLNDLLAASDVISLHCALTNDTVQILNAECLQHIKPGAFLVNTGSCQLLDDCAVKQLLIDGTIAGCALDGAEGPQWMEAWVKEMPNVLILPRSADYSEEVWMEIREKAISILHSFFLDGVIPSNTVSDEEVEESEASEEEEQSPSKHEKLAIVESTSRQQGESTLTSTEIVRREASELKESLSPGQQHVSQNTAVKPEGRRSRSGKKAKKRHSQQKYMQKTDGSSGLNEESTSRRDDIAMSDTEEVLSSSSRCASPEDSRSRKTPLEVMQESSPNQLVMSSKKFIGKSSELLKDGYVVALYAKDLSGLHVSRQRTKNGGWFLDTLSNVSKRDPAAQFIIAYRNKDTVGLRSFAAGGKLLQINRRMEFVFASHSFDVWESWSLEGSLDECRLVNCRNSSAVLDVRVEILAMVGDDGITRWID

binding [2]: binds
B2: KCBP-AD (full length KCBP/ZWICHEL, two-hybrid fusion) (protein, UniProt Q9FHN8 1-1260)
chain: MEGQRGSNSSLSSGNGTEVATDVSSCFYVPNPSGTDFDAESSSLPPLSPAPQVALSIPAELAAAIPLIDRFQVEAFLRLMQKQIQSAGKRGFFYSKKSSGSNVRERFTFEDMLCFQKDPIPTSLLKINSDLVSRATKLFHLILKYMGVDSSDRSTPPSLDERIDLVGKLFKKTLKRVELRDELFAQISKQTRHNPDRQYLIKAWELMYLCASSMPPSKDIGGYLSEYIHNVAHDATIEPDAQVLAVNTLKALKRSIKAGPRHTTPGREEIEALLTGRKLTTIVFFLDETFEEISYDMATTVSDAVEELAGTIKLSAFSSFSLFECRKVVSSSKSSDPGNEEYIGLDDNKYIGDLLAEFKAIKDRNKGEILHCKLVFKKKLFRESDEAVTDLMFVQLSYVQLQHDYLLGNYPVGRDDAAQLCALQILVGIGFVNSPESCIDWTSLLERFLPRQIAITRAKREWELDILARYRSMENVTKDDARQQFLRILKALPYGNSVFFSVRKIDDPIGLLPGRIILGINKRGVHFFRPVPKEYLHSAELRDIMQFGSSNTAVFFKMRVAGVLHIFQFETKQGEEICVALQTHINDVMLRRYSKARSAANSLVNGDISCSSKPQNFEVYEKRLQDLSKAYEESQKKIEKLMDEQQEKNQQEVTLREELEAIHNGLELERRKLLEVTLDRDKLRSLCDEKGTTIQSLMSELRGMEARLAKSGNTKSSKETKSELAEMNNQILYKIQKELEVRNKELHVAVDNSKRLLSENKILEQNLNIEKKKKEEVEIHQKRYEQEKKVLKLRVSELENKLEVLAQDLDSAESTIESKNSDMLLLQNNLKELEELREMKEDIDRKNEQTAAILKMQGAQLAELEILYKEEQVLRKRYYNTIEDMKGKIRVYCRIRPLNEKESSEREKQMLTTVDEFTVEHPWKDDKRKQHIYDRVFDMRASQDDIFEDTKYLVQSAVDGYNVCIFAYGQTGSGKTFTIYGHESNPGLTPRATKELFNILKRDSKRFSFSLKAYMVELYQDTLVDLLLPKSARRLKLEIKKDSKGMVFVENVTTIPISTLEELRMILERGSERRHVSGTNMNEESSRSHLILSVVIESIDLQTQSAARGKLSFVDLAGSERVKKSGSAGCQLKEAQSINKSLSALGDVIGALSSGNQHIPYRNHKLTMLMSDSLGGNAKTLMFVNVSPAESNLDETYNSLLYASRVRTIVNDPSKHISSKEMVRLKKLVAYWKEQAGKKGEEEDLVDIEEDRTRKDEADS

binding [3]: binds
B3: Myc-KCBP (35S:Myc-KCBP) (protein, UniProt Q9FHN8 1-1260)
chain: B2 chain

Source: article PMC5074588
